# Data as given in PubChem BioAssay AID652272 (Drosophila RNAi Screening Center, 2013)
# Purpose: 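Finding fly genes that regulate Hedgehog signal transduction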 (primary screen)
# Cell system: Drosophila clone 8 (Cl8) cells
# Reagent: long dsRNA against Drosophila genes
# Measured: 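Firefly light from a Hedgehog-responsive ptc promoter reporter and Renilla reference light, both read on a plate reader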
# Direction: firefly Hh reporter signal: higher = more ptc reporter light; Renilla reference signal: higher = more Renilla control light
# Rule for the call: 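Called a hit if the two-replicate mean z-score lies below -2 or above +3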
# Calls: active = hit: reporter lowered or raised; inactive = not a hit
# The screen tested about 21,000 reagents; this is an unselected part of those that have a named target and a result. Over the whole deposit, 503 (2.4%) got an active call. 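Raw plate light values, not normalised; calls rest on replicate z-scores that were not deposited; hits include reporter decreases as well as increases.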 Reagents against one gene are numbered here. Not stated in the record: the amount of reagent, the time to read-out.
target,reagent,"firefly Hh reporter signal, replicate 1","firefly Hh reporter signal, replicate 2","firefly Hh reporter signal, replicate 3","Renilla reference signal, replicate 1","Renilla reference signal, replicate 2",Call
Gr97a (Gustatory receptor 97a),1,42835,1.84e5,,10939,4228,inactive
Octbeta2R (Octopamine beta2 receptor),1,41225,2.55e5,,10641,5545,inactive
Octbeta2R (Octopamine beta2 receptor),2,99672,1.19e5,,3049,3385,inactive
Octbeta2R (Octopamine beta2 receptor),3,86432,1.05e5,,2535,3027,inactive
CG42544,1,1.42e5,,,3440,,inactive
wcd (wicked),1,1.05e5,68116,,5594,3666,inactive
CCT2 (Chaperonin containing TCP1 subunit 2),1,63685,69808,,2144,1944,inactive
CG14655,1,4.32e5,85909,,3808,3808,inactive
eIF3d1 (eukaryotic translation initiation factor 3 subunit d1),1,3.64e5,73075,,18352,1987,inactive
CG13455,1,84342,,,3779,2171,inactive
CG16813,1,1.98e5,68544,,4951,5457,inactive
CG30457,1,1.09e5,61254,,2866,4549,inactive
CG7879,1,60689,42359,,3574,2272,inactive
Gyf (Gigyf),1,1.04e5,49332,,2653,1957,inactive
CG11417,1,52227,72827,,917,2084,inactive
Kal1 (Kallmann syndrome 1),1,88791,49704,,3814,2186,inactive
CG42824,1,52259,2.67e5,,10212,6667,inactive
Cp15 (Chorion protein 15),1,56603,55264,,6745,4144,inactive
Pdzd8 (PDZ domain containing 8),1,56212,2.26e5,,2505,11960,inactive
Ski6,1,1.66e5,83152,,3961,6916,inactive
Prestin,1,91060,,,1177,4336,inactive
CG7369,1,1.34e5,4.79e5,1.22e5,5136,26925,inactive
CG1850,1,94793,51920,,2347,4914,inactive
CR43142 (pseudo),1,6.16e5,2.31e5,,30781,9005,inactive
CG8066,1,62576,95443,,1445,2518,inactive
IA-2 (IA-2 protein tyrosine phosphatase),1,1.24e5,6.30e5,87280,5750,3304,inactive
IA-2 (IA-2 protein tyrosine phosphatase),2,91651,1.05e5,,4256,5202,inactive
Ripalpha (RPA-interacting protein alpha),1,1.11e5,63723,,3365,6269,inactive
eIF2alpha (eukaryotic translation initiation factor 2 subunit alpha),1,62628,58466,,1405,1652,inactive
JMJD5 (Jumonji domain containing 5),1,85392,68027,,2613,5072,inactive
CG16790,1,1.24e5,1.35e5,,3427,3107,inactive
CG16984,1,74960,52711,,2160,4039,inactive
Sps1 (Selenophosphate synthetase 1),1,1.07e5,57531,,4816,3136,inactive
Josd (Josephin domain containing),1,59392,2.09e5,,2290,7350,inactive
IKKbeta (I-kappaB kinase beta),1,1.32e5,66555,,5393,2711,inactive
CG4325,1,79568,1.51e5,,2064,4844,inactive
ND-24 (NADH dehydrogenase (ubiquinone) 24 kDa subunit),1,1.35e5,1.54e5,,3137,3328,inactive
CBP (sarcoplasmic calcium-binding protein),1,99143,93641,,2133,2108,inactive
CG18766,1,1.09e5,65619,,2829,1611,inactive
CG15185,1,46002,71733,,2282,2403,inactive
CG11563,1,83626,1.45e5,,3392,7444,inactive
Rpt3 (Regulatory particle triple-A ATPase 3),1,68400,41773,,4192,1644,inactive
CG42724,1,70352,32489,,3281,1434,inactive
CG9010,1,89002,66617,,3947,2640,inactive
Syt12 (Synaptotagmin 12),1,79248,3.36e5,,2696,11926,inactive
Rbp6 (RNA-binding protein 6),1,2.58e5,,,5193,,inactive
Rbp6 (RNA-binding protein 6),2,1.76e5,,,2316,,inactive
Rbp6 (RNA-binding protein 6),3,1.40e5,,,3972,2979,inactive
Rbp6 (RNA-binding protein 6),4,1.23e5,,,4540,2167,inactive
Rbp6 (RNA-binding protein 6),5,1.05e5,,,4858,1932,inactive
path (pathetic),1,22989,55207,53704,5329,3975,inactive
CG30340,1,75013,1.94e5,,5383,8980,inactive
amos (absent MD neurons and olfactory sensilla),1,94161,61952,,1939,5434,inactive
lic (licorne),1,1.10e5,59830,,3264,1740,inactive
Cyp301a1 (Cytochrome P450 301a1),1,85129,58055,,2173,4240,inactive
CG5347,1,1.36e5,2.86e5,,4187,11237,inactive
CG30334,1,1.33e5,2.18e5,,3401,9979,inactive

An excerpt from above, showing only “Renilla reference signal, replicate 1”.
CG11417: 917
Kal1 (Kallmann syndrome 1): 3814
CG42824: 10212
